PubChem BioAssay AID1259327, Drosophila RNAi Screening Center | 2017
In all, the deposit lists about 3,100 reagents; below is an unselected part. 378 of all reagents (12%) were called active. 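Hits include both directions; z-score sign shows ATP rise or fall; raw luminescence values are not plate-normalised.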 Entries without a mark were called inactive. Names joined by + are all predicted targets of the reagent. No sequences are given here. Not given: the amount of reagent.

Test: 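Knock-downs altering cellular ATP with no metal added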
Cell system: Drosophila S2R+ cells
Reagent: long dsRNA against Drosophila genes
Duration: 5 days (water added on day 4, read one day later)
Conditions: water added as vehicle, no metal, one day before read-out
Read-out: 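Luciferase ATP signal per well, normalised to plate mean, duplicate average converted to z-score across plates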
Reading the numbers: ATP z-score: higher = more total ATP than typical wells; ATP luminescence: higher = more total ATP
Active means: 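a hit is any knock-down whose absolute ATP z-score is greater than 1.5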
Meaning of the calls: active = hit: ATP up or down; inactive = no clear ATP change

| gene knocked down | dsRNA | ATP z-score, duplicate mean | ATP luminescence, replicate 1 (RLU) | ATP luminescence, replicate 2 (RLU) |
| --- | --- | --- | --- | --- |
| CG33110 (GeneID 42659) | DRSC16137 | -0.794 | 2.53e5 | 7.03e5 |
| CG33110 (GeneID 42659) | DRSC27221 | 1.38 | 6.88e5 | 7.05e5 |
| Rh4 (GeneID 39887) | DRSC27381 | -0.898 | 9.96e5 | 1.09e6 |
| CG9447 (GeneID 35597) | DRSC05008 | -0.648 | 5.73e5 | 5.49e5 |
| bark (GeneID 33604) | DRSC00635 | -0.402 | 7.24e5 | 6.43e5 |
| bark (GeneID 33604) | DRSC27011 | 1.1 | 1.14e6 | 9.00e5 |
| Ac76E (GeneID 40180) | DRSC09642 | 2.12 (active) | 6.44e5 | 6.62e5 |
| Ac76E (GeneID 40180) | DRSC09662 | -1.99 (active) | 5.01e5 | 5.35e5 |
| beta4GalT7 (GeneID 42991) | DRSC14385 | -0.25 | 2.59e5 | 8.09e5 |
| CG4743 (GeneID 43101) | DRSC15636 | 0.78 | 3.48e5 | 8.10e5 |
| CG33635 (GeneID 3772540) | DRSC00006 | -0.141 | 7.30e5 | 7.24e5 |
| uzip (GeneID 38002) | DRSC04722 | -0.063 | 6.90e5 | 7.60e5 |
| uzip (GeneID 38002) | DRSC30045 | -1.76 (active) | 4.14e5 | 4.48e5 |
| GC (GeneID 38194) | DRSC08396 | 1.08 | 7.56e5 | 6.80e5 |
| GC (GeneID 38194) | DRSC27222 | -0.684 | 9.32e5 | 9.73e5 |
| ninaA (GeneID 33271) | DRSC00830 | 1.19 | 5.41e5 | 5.86e5 |
| Gr21a (GeneID 33251) | DRSC00366 | -0.00315 | 7.06e5 | 7.05e5 |
| Gr21a (GeneID 33251) | DRSC28583 | -1.67 (active) | 3.84e5 | 8.39e5 |
| CG8237 (GeneID 35891) | DRSC07119 | 0.732 | 8.08e5 | 8.11e5 |
| CG8237 (GeneID 35891) | DRSC26686 | 4.61 (active) | 7.57e5 | 8.41e5 |
| Tsp42Er (GeneID 35629) | DRSC06183 | -0.333 | 5.30e5 | 6.49e5 |
| sas (GeneID 40861) | DRSC12631 | 0.00662 | 9.72e5 | 8.25e5 |
| CCAP-R (GeneID 2768688) | DRSC14891 | 0.00134 | 7.57e5 | 7.27e5 |
| CCAP-R (GeneID 2768688) | DRSC15967 | -0.582 | 2.66e5 | 7.16e5 |
| CCAP-R (GeneID 2768688) | DRSC29494 | -0.536 | 7.93e5 | 7.26e5 |
| DopEcR (GeneID 38539) | DRSC08529 | 0.113 | 6.87e5 | 8.01e5 |
| CG1246 (GeneID 38330) | DRSC08275 | 1.19 | 7.52e5 | 7.02e5 |
| CG1246 (GeneID 38330) | DRSC39873 | -1.8 (active) | 4.29e5 | 4.33e5 |
| Tsp42Ea (GeneID 59178) | DRSC04982 | -0.92 | 4.89e5 | 5.84e5 |
| Tsp42Ea (GeneID 59178) | DRSC06792 | 0.64 | 7.09e5 | 6.46e5 |
| CG42322 (GeneID 42455) | DRSC15112 | -0.237 | 6.91e5 | 6.71e5 |
| CG42322 (GeneID 42455) | DRSC15113 | -0.774 | 2.19e5 | 7.93e5 |
| CG17637 (GeneID 40275) | DRSC11740 | 0.559 | 1.03e6 | 9.08e5 |
| st (GeneID 39836) | DRSC11399 | -0.476 | 6.92e5 | 6.68e5 |
| st (GeneID 39836) | DRSC28257 | 0.703 | 8.69e5 | 9.42e5 |
| Toll-4 (GeneID 34235) | DRSC03458 | 0.0771 | 7.40e5 | 7.29e5 |
| Toll-4 (GeneID 34235) | DRSC39440 | 0.571 | 4.88e5 | 4.93e5 |
| CG9270 (GeneID 35366) | DRSC03182 | -0.306 | 6.87e5 | 7.10e5 |
| babo (GeneID 35900) | DRSC07581 | -0.788 | 6.37e5 | 4.59e5 |
| babo (GeneID 35900) | DRSC36676 | -0.67 | 4.59e5 | 5.88e5 |
| babo (GeneID 35900) | DRSC36677 | 0.934 | 7.63e5 | 5.53e5 |
| CG10486 (GeneID 38664) | DRSC09735 | 0.164 | 9.12e5 | 9.22e5 |
| CG10486 (GeneID 38664) | DRSC39429 | -1.21 | 3.70e5 | 3.76e5 |
| GABA-B-R2 (GeneID 42561) | DRSC28127 | 1.73 (active) | 1.04e6 | 1.06e6 |
| GABA-B-R2 (GeneID 42561) | DRSC39461 | -2.05 (active) | 3.24e5 | 3.10e5 |
| nes (GeneID 40093) | DRSC11375 | -0.788 | 8.28e5 | 7.59e5 |
| nes (GeneID 40093) | DRSC39655 | -0.265 | 4.15e5 | 4.81e5 |
| CG11147 (GeneID 33803) | DRSC02129 | -0.629 | 7.00e5 | 6.19e5 |
| Vha100-2 (GeneID 42216) | DRSC14152 | 0.75 | 8.10e5 | 7.56e5 |
| Vha100-2 (GeneID 42216) | DRSC29227 | -0.234 | 8.46e5 | 7.47e5 |
| CG11426 (GeneID 40471) | DRSC11658 | 0.145 | 9.56e5 | 8.76e5 |
| CG11426 (GeneID 40471) | DRSC27815 | 0.548 | 9.61e5 | 9.92e5 |
| CG11426 (GeneID 40471) | DRSC37070 | 1.55 (active) | 6.05e5 | 8.19e5 |
| mAChR-B (GeneID 40955) | DRSC16345 | -2.27 (active) | 2.13e5 | 4.75e5 |
| mAChR-B (GeneID 40955) | DRSC26738 | 0.41 | 1.07e6 | 9.61e5 |
| CG11566 (retired record) + stg1 | DRSC20482 | 0.503 | 8.59e5 | 7.30e5 |
| CG11566 (retired record) + stg1 | DRSC20483 | -0.735 | 6.41e5 | 6.86e5 |
| CG13801 (GeneID 38299) | DRSC08335 | -0.924 | 6.04e5 | 4.67e5 |
| ptc (GeneID 35851) | DRSC05117 | -0.461 | 7.25e5 | 6.57e5 |
| ptc (GeneID 35851) | DRSC07669 | 2.51 (active) | 8.39e5 | 8.56e5 |
| RyR (GeneID 49090) | DRSC07543 | -0.711 | 5.78e5 | 5.32e5 |
| RyR (GeneID 49090) | DRSC39632 | 1.19 | 5.24e5 | 5.68e5 |
| CG30043 (GeneID 246412) | DRSC06285 | -1.43 | 5.63e5 | 4.18e5 |
| CG30043 (GeneID 246412) | DRSC39455 | -0.0903 | 4.48e5 | 4.45e5 |
| CG10182 (GeneID 42780) | DRSC14202 | -0.865 | 2.69e5 | 6.46e5 |
| Jwa (GeneID 35128) | DRSC02048 | 0.996 | 5.14e5 | 5.86e5 |
| Jwa (GeneID 35128) | DRSC26655 | -0.57 | 9.84e5 | 1.02e6 |
| msk (GeneID 44747) | DRSC11340 | 0.708 | 8.25e5 | 7.88e5 |
| msk (GeneID 44747) | DRSC23929 | -0.812 | 7.74e5 | 7.24e5 |
| CapaR (GeneID 40393) | DRSC23640 | 0.676 | 1.02e6 | 8.52e5 |
| CapaR (GeneID 40393) | DRSC39684 | -0.179 | 4.40e5 | 4.67e5 |
| Itpr (GeneID 40664) | DRSC12354 | 0.415 | 9.74e5 | 9.28e5 |
| Itpr (GeneID 40664) | DRSC28770 | -1.31 | 6.84e5 | 6.49e5 |
| Ipo9 (GeneID 41367) | DRSC16813 | 1.38 | 4.06e5 | 7.96e5 |
| scb (GeneID 36692) | DRSC05542 | -0.11 | 7.05e5 | 7.57e5 |
| scb (GeneID 36692) | DRSC07678 | 0.83 | 7.33e5 | 6.56e5 |
| CG13920 (GeneID 38203) | DRSC08389 | -0.883 | 6.32e5 | 6.41e5 |
| CG13920 (GeneID 38203) | DRSC39516 | -0.768 | 4.29e5 | 3.77e5 |
| CG42816 (GeneID 39977) | DRSC11230 | -0.583 | 8.28e5 | 8.11e5 |
| ppk3 (GeneID 246504) | DRSC04275 | 1.27 | 8.78e5 | 8.45e5 |
| ppk3 (GeneID 246504) | DRSC25960 | 0.191 | 9.80e5 | 7.67e5 |
| Gr5a (GeneID 44873) | DRSC18085 | -0.0984 | 6.39e5 | 6.56e5 |
| Scamp (GeneID 32470) | DRSC20286 | -0.447 | 6.99e5 | 6.51e5 |
| Scamp (GeneID 32470) | DRSC29752 | 0.346 | 9.45e5 | 7.91e5 |
| CG14070 (GeneID 34508) | DRSC02373 | -0.927 | 6.04e5 | 6.51e5 |
| SMSr (GeneID 38823) | DRSC10999 | -0.313 | 8.82e5 | 8.29e5 |
| CG3164 (GeneID 33171) | DRSC00572 | 0.973 | 8.32e5 | 7.81e5 |

A run of entries taken from the entries so far, for reference:
| gene knocked down | dsRNA | ATP z-score, duplicate mean | ATP luminescence, replicate 1 (RLU) | ATP luminescence, replicate 2 (RLU) |
| --- | --- | --- | --- | --- |
| CG33110 (GeneID 42659) | DRSC16137 | -0.794 | 2.53e5 | 7.03e5 |
| CG33110 (GeneID 42659) | DRSC27221 | 1.38 | 6.88e5 | 7.05e5 |
| Rh4 (GeneID 39887) | DRSC27381 | -0.898 | 9.96e5 | 1.09e6 |
| CG9447 (GeneID 35597) | DRSC05008 | -0.648 | 5.73e5 | 5.49e5 |
| bark (GeneID 33604) | DRSC00635 | -0.402 | 7.24e5 | 6.43e5 |
| bark (GeneID 33604) | DRSC27011 | 1.1 | 1.14e6 | 9.00e5 |
| Ac76E (GeneID 40180) | DRSC09642 | 2.12 (active) | 6.44e5 | 6.62e5 |
| Ac76E (GeneID 40180) | DRSC09662 | -1.99 (active) | 5.01e5 | 5.35e5 |
